The campaign covered roughly 340,000 compounds. About 6,200 (1.8%) were called active. The shares of active, inactive and inconclusive entries below differ from those in the screen. The call rests on the fitted dose curve; in most records, active means well fitted activation curve with a large enough effect; inconclusive means small, poorly fitted or top-dose-only effect; inactive means no such curve, though single readings can be large or run the other way. A potency beside an inconclusive call is a rough fit, not a confirmed value.
Assay: A quantitative high throughput screen for small molecules that induce DNA re-replication in SW480 colon adenocarcinoma cells. Further: nearly all actives have a fitted effect of over 55% in size.
Settings: Hoechst DNA content imaging, 48 h; series mostly up to 46.1 µM
In short: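 SW480 cells exposed to compounds for 48 hr at 37 C, 5% CO2, then Hoechst-stained 40 min. Nuclear DNA content imaged by fluorescence scanning (405 nm excitation, 500-530 nm emission); re-replication scored as increased high-intensity nuclei.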
Potency means the concentration at half of the fitted maximal effect.

| Structure (SMILES) | Potency |
| --- | --- |
| O=C(NC1CCCCCCC1)c1ccc2c(c1)N(Cc1ccc(F)cc1)C(=O)CS2=O (stereo not given) | inconclusive: 32.6 µM [activator, single point] |
| CCO/C=C1\C(=O)N(c2ccccc2)C(=O)c2ccccc21 | inconclusive: 20.6 µM [activator, single point] |
| Cc1nnc(SCc2ccccc2)nc1/C=C/NOCc1ccc(Cl)cc1Cl | inactive |
| Fc1ccc(Oc2nc(-c3ccccc3)nnc2C(F)(F)F)cc1 | inactive |
| O=C(NCCc1ccccc1)c1ccc(CS(=O)Cc2ccc(Cl)cc2)o1 (stereo not given) | inconclusive: 29.1 µM [activator, single point] |
| Cc1ccc(CN(C(=O)c2ccc(Cl)c([N+](=O)[O-])c2)C2CCS(=O)(=O)C2)o1 (stereo not given) | inactive |
| CNC(=O)CC1C(=O)N(c2ccc(Cl)cc2)C(=S)N1NC(=O)c1cccc(F)c1 (stereo not given) | inactive |
| Oc1ccccc1CNCCCN1CCOCC1 | inactive |
| COc1ccc(Br)cc1/C=C/C(=O)Nc1c(C)cccc1C | inactive |
| O=C(CCc1ccccc1)Nc1ccc(Cl)cn1 | active: 6.51 µM |
| COc1cccc(NC2=C(Cl)C(=O)OC2OC(=O)c2ccco2)c1 (stereo not given) | inconclusive: 25.9 µM [activator, single point] |
| Cc1ccccc1Nc1cc(C(=O)NCc2ccco2)c2ccccc2n1 | inconclusive: 29.1 µM [activator, single point] |
| C=CCn1c(SCC(=O)Nc2ccc(-c3nc4ccc(C)cc4s3)cc2)nnc1-c1ccccc1 | active: 10.3 µM |
| CC1CCCC(C)N1CC(O)COC1CCC(C(C)(C)C)CC1 (stereo not given) | inconclusive: 1.64 µM [activator, partial curve, poor fit] |
| CCCOCc1ccc(O)c2ncccc12 | active: 5.8 µM |
| Cc1ccc(CNC(=O)C2CCN(c3nnc(N4CCCC4=O)s3)CC2)cc1 | inactive |
| O=C(C=Cc1cccs1)c1ccc(Cl)s1 | inconclusive: 18.4 µM [activator, single point] |
| Cc1ccc(N2CCN(C(=O)c3nn(C)c4c3CS(=O)(=O)c3ccccc3-4)CC2)c(C)c1 | inconclusive: 3.66 µM [activator, full curve, poor fit] |
| COc1ccc(NC(=O)C2CCCC2)cc1S(=O)(=O)N1CCOCC1 | inactive |
| CC(C)C(OC(=O)c1cccs1)C(=O)NCc1ccccc1 (stereo not given) | inactive |
| O=C(Nc1cccc(S(=O)(=O)N2CCCCC2)c1)c1ccc2c(=O)n3c(nc2c1)CCCCC3 | inactive |
| C=C(C)C(=O)Oc1ccc(N=Nc2ccc(C)cc2)ccc1=O | inconclusive: 23.1 µM [activator, single point] |
| C[n+]1c2n(c3ccccc31)N=C(c1ccc(Cl)cc1)CS2 | inconclusive: 20.6 µM [activator, partial curve, poor fit] |

Random excerpt: 2 entries already listed, in no set order.

| Structure (SMILES) | Potency |
| --- | --- |
| O=C(CCc1ccccc1)Nc1ccc(Cl)cn1 | active: 6.51 µM |
| Fc1ccc(Oc2nc(-c3ccccc3)nnc2C(F)(F)F)cc1 | inactive |

(continued)

| Structure (SMILES) | Potency |
| --- | --- |
| CC(=O)c1ccc(OCC(O)CN2CCc3ccccc3C2)cc1 (stereo not given) | inconclusive: 0.562 µM [activator, partial curve, poor fit] |
| Cc1ccc(SCC(=O)OCC(=O)N(CC(C)C)c2c(N)n(Cc3ccccc3)c(=O)[nH]c2=O)c(C)c1 | inconclusive: 20.6 µM [activator, partial curve, poor fit] |
| CCN1C(=O)/C(=C\N2CCN(c3ccc(F)cc3)CC2)SC1=S | inactive |
| COc1ccc(NC(=O)CN(C)C(=O)CNC(=O)C2CCCCC2)cc1 | inconclusive: 29.1 µM [activator, single point] |
| COc1cccc(NC(=O)CN(C)C(=O)c2cc(-c3ccccc3)nc3ccc(C)cc23)c1 | inconclusive: 6.51 µM [activator, single point] |
| N#C/C(=C(/O)CCl)c1nc(-c2ccccc2)cs1 | inconclusive: 29.1 µM [activator, single point] |
| CCCCCn1c(CCNC(=O)c2cccs2)nc2ccccc21 | inactive |
| Cc1ccc(S(=O)(=O)Nc2ccccc2C(=O)Nc2nc(-c3ccc(F)cc3)cs2)cc1 | inconclusive: 29.1 µM [activator, single point] |
| CCOC(=O)C1=CN(Cc2ccco2)S(=O)(=O)NC1c1ccc(Br)cc1F (stereo not given) | inconclusive: 20.6 µM [activator, partial curve, poor fit] |
| CCc1ccc(-c2csc3nc[nH]c(=O)c23)cc1 | inconclusive: 29.1 µM [activator, partial curve, poor fit] |
| C#CCOCCOCCOCCNc1nc(N2CCN(C(=O)[C@H](CCC(=O)O)n3cc(C(N)CO)nn3)CC2)nc(N2CCN(C(=O)[C@H](Cc3ccc(O)cc3)n3cc(C(N)[C@H](C)CC)nn3)CC2)n1 (stereo not given in full) | inconclusive: 0.82 µM [activator, full curve, poor fit] |
| O=C(CCc1ccccc1)NCC(=O)N/N=C/c1ccc(O)cc1O | inconclusive: 10.3 µM [activator, partial curve] |
| COc1ccc(CN(C)CC(O)COC(c2ccc(OC)cc2)c2ccc(OC)cc2)cc1 (stereo not given) | inconclusive: 18.4 µM [activator, single point] |
| C[C@@H]1CN([C@H](C)CO)C(=O)Cc2cc(NC(=O)Nc3ccccc3)ccc2O[C@@H]1CN(C)C(=O)Nc1ccc2c(c1)OCO2 | inactive |
| Cc1cccc(NC(=S)NCC(C)CSc2ccc(Cl)cc2)c1 (stereo not given) | inconclusive: 16.4 µM [activator, partial curve] |
| CCN(CC(=O)Nc1cc(C)nn1-c1nc(C)cc(C)n1)Cc1ccccc1 | inconclusive: 17.8 µM [activator, partial curve, poor fit] |
| Cc1ccc(N/C(CSC(N)=O)=N\S(=O)(=O)c2ccc(C)cc2)cc1 | inactive |
| CCN(CC)c1ccc(C=NNc2ccc([N+](=O)[O-])cn2)cc1 | inconclusive: 20.6 µM [activator, single point] |
| COc1ccc(N2C(=O)CSC2c2ccc(F)c(F)c2)cc1 (stereo not given) | inactive |
| C=CCNC(=S)NNC(=O)c1cccn(Cc2ccc(Cl)c(Cl)c2)c1=O | inactive |
| CCCCN(CCCC)S(=O)(=O)c1ccc(C(=O)Nc2nnc(CSC)o2)cc1 | inconclusive: 14.6 µM [activator, partial curve] |
| CCOc1cc(/C=C2\CCC/C(=C\c3cc(Cl)c(O)c(OCC)c3)C2=O)cc(Cl)c1O | inconclusive: 16.4 µM [activator, partial curve, poor fit] |

From PubChem BioAssay AID624297 (National Center for Advancing Translational Sciences (NCATS), 2012)
